Tested on: M. galloprovincialis plantigrade larvae proteome
Assay: Differential proteome analysis of plantigrade larvae (label-free shotgun proteomics)
Design: species or system Mytilus galloprovincialis
[1] = larvae exposed at 6.25 and 25 µM
[2] = larvae exposed at 12.5 and 50 µM

Compound | number of proteins with altered abundance [1] | abundance of protein-2 collagen-like and precollagen P (PreCols) versus control [2] | number of proteins with altered abundance [2] [proteins] | detection of two putative proximal thread matrix proteins (TMPs) (larvae exposed at 6.25 and 25 µM, detected in control)
CCCOc1ccc(N2CCCCC2)c2c(=O)c3ccccc3sc12 [Compound 17, 1-(piperidin-1-yl)-4-propoxy-9H-thioxanthen-9-one] | five | – | – | –
O=c1c2ccccc2oc2c(O)c(O)ccc12 [Compound 7, 3,4-dihydroxy-] | – | respectively above and below the control levels | 24 | –
CC1(C)CCc2cc3c(=O)c4ccccc4oc3c(O)c2O1 [Compound 10, 4-dihydro-12-hydroxy-2,2-dimethyl-2H,6H-pyrano [3,2-b]xanthone] | 14 proteins | – | – | become undetected
